Among the data in publication PMC8803338 are binding values, retold here.

By UniProt entry, the sequences of proteins in these tests, tags left out. Where a name states a change or a piece, a line headed by the entry shows the natural chain unless it says otherwise. Chains listed by the source or under a name are the forms on record and can include a tag or linker.
Myc-Numb65 (Q9QZS3, form named): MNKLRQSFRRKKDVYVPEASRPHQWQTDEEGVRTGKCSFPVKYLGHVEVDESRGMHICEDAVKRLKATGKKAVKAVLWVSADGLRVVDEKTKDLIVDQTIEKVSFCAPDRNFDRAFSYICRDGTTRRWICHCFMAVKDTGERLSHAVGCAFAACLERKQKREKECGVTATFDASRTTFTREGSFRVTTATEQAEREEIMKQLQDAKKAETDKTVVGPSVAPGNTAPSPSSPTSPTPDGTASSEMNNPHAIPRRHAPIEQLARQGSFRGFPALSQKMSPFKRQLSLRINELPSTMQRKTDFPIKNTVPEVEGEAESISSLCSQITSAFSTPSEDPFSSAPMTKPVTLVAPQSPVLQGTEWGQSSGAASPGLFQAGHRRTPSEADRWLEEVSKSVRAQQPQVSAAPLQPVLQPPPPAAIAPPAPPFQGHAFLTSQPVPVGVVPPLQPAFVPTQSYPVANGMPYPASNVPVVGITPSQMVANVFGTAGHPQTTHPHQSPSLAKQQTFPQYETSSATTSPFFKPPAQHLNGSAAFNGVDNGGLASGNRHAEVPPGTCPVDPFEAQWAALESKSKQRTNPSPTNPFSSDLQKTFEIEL
UniProt Q9JI91: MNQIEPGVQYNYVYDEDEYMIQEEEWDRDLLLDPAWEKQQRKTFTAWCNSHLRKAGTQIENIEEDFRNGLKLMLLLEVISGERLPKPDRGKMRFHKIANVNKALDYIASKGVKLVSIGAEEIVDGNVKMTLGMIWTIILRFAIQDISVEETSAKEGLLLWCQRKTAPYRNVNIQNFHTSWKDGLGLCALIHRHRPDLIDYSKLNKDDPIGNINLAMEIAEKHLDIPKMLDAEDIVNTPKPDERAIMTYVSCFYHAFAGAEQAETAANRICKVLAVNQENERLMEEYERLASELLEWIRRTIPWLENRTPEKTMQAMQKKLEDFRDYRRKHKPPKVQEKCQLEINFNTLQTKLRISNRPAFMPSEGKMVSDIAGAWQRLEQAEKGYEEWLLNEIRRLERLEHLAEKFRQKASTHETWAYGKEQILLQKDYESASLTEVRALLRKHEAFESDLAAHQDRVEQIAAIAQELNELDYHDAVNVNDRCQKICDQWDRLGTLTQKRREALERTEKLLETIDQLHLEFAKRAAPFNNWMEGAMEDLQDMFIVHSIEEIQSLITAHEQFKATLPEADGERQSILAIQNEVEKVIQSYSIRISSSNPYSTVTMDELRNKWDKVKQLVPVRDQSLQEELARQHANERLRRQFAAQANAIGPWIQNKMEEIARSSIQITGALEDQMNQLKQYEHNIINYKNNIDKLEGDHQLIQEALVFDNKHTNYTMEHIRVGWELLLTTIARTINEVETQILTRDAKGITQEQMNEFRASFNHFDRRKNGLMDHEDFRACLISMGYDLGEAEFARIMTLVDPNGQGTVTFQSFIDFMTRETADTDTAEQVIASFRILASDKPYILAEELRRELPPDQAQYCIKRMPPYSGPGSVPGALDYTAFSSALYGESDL
UniProt O88990: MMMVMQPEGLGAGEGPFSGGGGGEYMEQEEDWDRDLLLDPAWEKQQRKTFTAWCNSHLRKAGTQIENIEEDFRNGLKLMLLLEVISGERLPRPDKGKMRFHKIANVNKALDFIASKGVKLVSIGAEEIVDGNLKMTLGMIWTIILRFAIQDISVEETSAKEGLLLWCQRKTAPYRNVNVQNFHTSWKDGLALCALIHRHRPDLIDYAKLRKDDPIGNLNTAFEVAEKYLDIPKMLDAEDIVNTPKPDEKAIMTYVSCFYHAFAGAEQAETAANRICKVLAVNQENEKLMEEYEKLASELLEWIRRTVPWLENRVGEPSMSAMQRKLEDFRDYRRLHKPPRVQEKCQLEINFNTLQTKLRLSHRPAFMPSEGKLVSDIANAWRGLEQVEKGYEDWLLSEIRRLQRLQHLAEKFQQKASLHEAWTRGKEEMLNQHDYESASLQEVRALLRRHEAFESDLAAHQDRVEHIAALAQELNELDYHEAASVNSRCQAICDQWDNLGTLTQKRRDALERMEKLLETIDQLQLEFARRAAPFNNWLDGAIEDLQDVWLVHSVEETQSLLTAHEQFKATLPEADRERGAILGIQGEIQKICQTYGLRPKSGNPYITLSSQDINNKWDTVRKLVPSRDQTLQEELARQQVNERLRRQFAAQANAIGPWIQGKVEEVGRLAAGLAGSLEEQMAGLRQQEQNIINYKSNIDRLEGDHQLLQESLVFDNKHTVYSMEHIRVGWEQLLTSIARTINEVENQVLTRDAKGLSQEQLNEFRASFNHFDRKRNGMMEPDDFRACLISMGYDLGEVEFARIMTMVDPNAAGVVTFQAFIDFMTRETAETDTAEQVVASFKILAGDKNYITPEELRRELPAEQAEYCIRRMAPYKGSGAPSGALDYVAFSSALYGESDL

The target in test [1] is Myc-Numb65 (UniProt Q9QZS3). The test is described as follows: co-IP; AD293 cells cotransfected with Myc-tagged and EGFP-tagged plasmids, harvested 24 hours after transfection; NP-40 lysis buffer, anti-Myc-Tag, Protein A/G beads, Western blot. In general terms: In western blotting, separated proteins are transferred to a membrane and probed.
For test [2], the target named is T1, Myc-Numblike (UniProt O08919).
T1 sequence: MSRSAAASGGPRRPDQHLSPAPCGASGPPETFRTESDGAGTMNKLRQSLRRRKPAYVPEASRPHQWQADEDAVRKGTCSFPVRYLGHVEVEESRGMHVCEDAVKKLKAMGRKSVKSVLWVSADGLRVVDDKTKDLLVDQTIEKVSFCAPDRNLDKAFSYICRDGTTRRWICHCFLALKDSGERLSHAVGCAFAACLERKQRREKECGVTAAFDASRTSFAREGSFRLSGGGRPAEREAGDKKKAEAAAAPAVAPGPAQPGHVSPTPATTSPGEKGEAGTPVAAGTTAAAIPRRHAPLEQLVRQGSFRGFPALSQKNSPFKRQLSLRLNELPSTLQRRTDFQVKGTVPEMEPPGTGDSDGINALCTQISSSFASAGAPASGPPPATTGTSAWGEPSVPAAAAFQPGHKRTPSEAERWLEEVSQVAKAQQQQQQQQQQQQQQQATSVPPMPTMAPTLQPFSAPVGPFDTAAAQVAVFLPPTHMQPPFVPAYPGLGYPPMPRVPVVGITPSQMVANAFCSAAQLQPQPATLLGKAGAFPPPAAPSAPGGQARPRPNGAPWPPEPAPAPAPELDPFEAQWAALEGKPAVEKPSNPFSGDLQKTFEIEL
Described as above.

Results are given in words; binding and its absence hold for the method and conditions named. Binding seen in cells or lysates may run through a third protein. For some of these results: Where a sequence is shown, tags or fusion partners need not be part of it.

As for EGFP-ACTN2 (from UniProt Q9JI91 1-894), the binding entry in test [1] and in test [2] was “no binding” throughout.
In the case of EGFP-ACTN3 (from UniProt O88990 1-900), the binding result in test [1] and in test [2] was “no binding” in each case.
